The structures appear in SMILES notation. The list shows only some results of the screen, not a fair sample: it gathers tests that were run many times, whatever their T/C, doses with no T/C, and many T/C values between a quarter and a half above the control. Further doses and runs are listed elsewhere. T/C: endpoint of the treated group in % of that of the vehicle group. Schedule codes are those of the source, taken here to give the interval after Q, in days (D) or hours (H), and the number of doses after X. Some T/C values are negative: the treated tumours shrank. Marks such as (2×) say how often a value occurs here. Some entries hold several experiments; the results are listed from low to high. Some T/C values carry the count of animals alive at the toxicity check (mostly the fifth day); where none is given, no animal had died by that day. Some doses have a count of surviving animals in place of a T/C: the source holds a T/C of zero for them, seemingly a mark for toxic or unscored doses. Survivors were counted at the toxicity check, usually on the fifth day, unless a day is given; later deaths do not show.

This note sets out measurements from PubChem BioAssay AID220 (DTP/NCI, 2004).

The subject of this assay is CD8F1 mice, subcutaneous mammary adenocarcinoma, T/C%. In words: NCI In Vivo Anticancer Drug Screen. Data for tumor model Mammary Adenocarcinoma CD8F1 (subcutaneous) in CD8F1. To be noted: higher T/C = larger tumour. The procedure, abridged:
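Mice carrying transplanted tumors received test compound, and survival or tumor size was recorded. Each value is the treated-group measurement divided by the corresponding measurement in vehicle-dosed controls.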

For `N[C@@H](Cc1ccc(N(CCCl)CCCl)cc1)C(=O)O`, the survivor count was 1 of 10 on day 30 (T/C endpoint: median tumor weight (est.), dose: 12.0 mg/kg/injection, schedule: Q07DX005 (ip), vehicle: suspension in saline); 3 of 10 on day 30 and 5 of 10 on day 32 (T/C endpoint: median tumor weight (est.), dose: 32.0 mg/kg/injection, schedule: Q01DX001 (ip), vehicle: suspension in saline); 1 of 10 on day 32 (T/C endpoint: median tumor weight (est.), dose: 32.0 mg/kg/injection, schedule: Q07DX005 (ip), vehicle: suspension in saline); 0 of 10 on day 30 and 1 of 10 on day 32 (T/C endpoint: median tumor weight (est.), dose: 64.0 mg/kg/injection, schedule: Q01DX001 (ip), vehicle: suspension in saline); 0 of 10 on day 30 and 0 of 10 on day 32 (T/C endpoint: median tumor weight (est.), dose: 128.0 mg/kg/injection, schedule: Q01DX001 (ip), vehicle: suspension in saline); 0 of 10 on day 30 and 0 of 10 on day 32 (T/C endpoint: median tumor weight (est.), dose: 256.0 mg/kg/injection, schedule: Q01DX001 (ip), vehicle: suspension in saline). For the same compound, the survivor count is, setting by setting: (T/C endpoint: median tumor weight change, dose: 40.0 mg/kg/injection, schedule: Q01DX001 (ip), vehicle: saline) 3 of 10 on day 32; (T/C endpoint: median tumor weight change, dose: 80.0 mg/kg/injection, schedule: Q01DX001 (ip), vehicle: saline) 0 of 10 on day 32; (T/C endpoint: median tumor weight change, dose: 160.0 mg/kg/injection, schedule: Q01DX001 (ip), vehicle: saline) 0 of 10 on day 32. Further, the T/C is 26 % of control (T/C endpoint: median tumor weight change, dose: 5.3 mg/kg/injection, schedule: Q01DX001 (ip), vehicle: saline, evaluated on day 29); 39 % of control (T/C endpoint: median tumor weight change, dose: 5.3 mg/kg/injection, schedule: Q01DX001 (ip), vehicle: saline, evaluated on day 30); -20 % of control (2×) (T/C endpoint: median tumor weight change, dose: 5.3 mg/kg/injection, schedule: Q01DX001 (ip), vehicle: saline, evaluated on day 33); 4 % of control (T/C endpoint: median tumor weight change, dose: 8.0 mg/kg/injection, schedule: Q01DX001 (ip), vehicle: saline, evaluated on day 29); 29 % of control (T/C endpoint: median tumor weight change, dose: 8.0 mg/kg/injection, schedule: Q01DX001 (ip), vehicle: saline, evaluated on day 30); -51 and -27 % of control (T/C endpoint: median tumor weight change, dose: 8.0 mg/kg/injection, schedule: Q01DX001 (ip), vehicle: saline, evaluated on day 33). Besides, the T/C is, setting by setting: (T/C endpoint: median tumor weight change, dose: 8.0 mg/kg/injection, schedule: Q01DX001 (ip), vehicle: saline, evaluated on day 39) -22 % of control; (T/C endpoint: median tumor weight change, dose: 12.0 mg/kg/injection, schedule: Q01DX001 (ip), vehicle: saline, evaluated on day 29) -12 % of control; (T/C endpoint: median tumor weight change, dose: 12.0 mg/kg/injection, schedule: Q01DX001 (ip), vehicle: saline, evaluated on day 30) -2 % of control; (T/C endpoint: median tumor weight change, dose: 12.0 mg/kg/injection, schedule: Q01DX001 (ip), vehicle: saline, evaluated on day 33) -68 and -65 % of control; (T/C endpoint: median tumor weight change, dose: 12.0 mg/kg/injection, schedule: Q01DX001 (ip), vehicle: saline, evaluated on day 39) -5 % of control [9 of 10 alive on day 39]; (T/C endpoint: median tumor weight change, dose: 18.0 mg/kg/injection, schedule: Q01DX001 (ip), vehicle: saline, evaluated on day 29) -48 % of control. For the same compound, the T/C is, setting by setting: (T/C endpoint: median tumor weight change, dose: 18.0 mg/kg/injection, schedule: Q01DX001 (ip), vehicle: saline, evaluated on day 30) -36 % of control; (T/C endpoint: median tumor weight change, dose: 18.0 mg/kg/injection, schedule: Q01DX001 (ip), vehicle: saline, evaluated on day 33) -89 [8 of 10 alive on day 30] and -80 % of control [9 of 10 alive on day 30]; (T/C endpoint: median tumor weight change, dose: 18.0 mg/kg/injection, schedule: Q01DX001 (ip), vehicle: saline, evaluated on day 39) -27 % of control [9 of 10 alive on day 39].

As for `O=c1[nH]cnc2c1ccn2C1OC(CO)C(O)C1O` (stereo not given), the T/C (T/C endpoint: median tumor weight change, dose: 6.0 mg/kg/injection, schedule: Q01DX001 (ip), vehicle: saline, evaluated on day 35) is 137 % of control and the T/C (T/C endpoint: median tumor weight change, dose: 12.0 mg/kg/injection, schedule: Q01DX001 (ip), vehicle: saline, evaluated on day 35) was 127 % of control. In addition, for the setting “T/C endpoint: median tumor weight change, dose: 96.0 mg/kg/injection, schedule: Q01DX001 (ip), vehicle: saline”, the survivor count was 0 of 10 on day 35.

With `C=C1C(=O)OCC2C(C(=O)O)=CC3C(C)C(C)=CC123` (stereo not given), the T/C (T/C endpoint: median tumor weight (est.), dose: 10.0 mg/kg/injection, schedule: Q07DX005 (ip), vehicle: Klucel (hydroxypropylcellulose) (HPC), evaluated on day 30) was 134 % of control. Further, the survivor count was 2 of 10 on day 30 (T/C endpoint: median tumor weight (est.), dose: 160.0 mg/kg/injection, schedule: Q07DX005 (ip), vehicle: Klucel (hydroxypropylcellulose) (HPC)); 0 of 10 on day 30 and 0 of 10 on day 32 (T/C endpoint: median tumor weight (est.), dose: 320.0 mg/kg/injection, schedule: Q07DX005 (ip), vehicle: Klucel (hydroxypropylcellulose) (HPC)).

For the compound `O=C(CCCN1CCC(O)(c2cccc(C(F)(F)F)c2)CC1)c1ccc(F)cc1`, for the setting “T/C endpoint: median tumor weight (est.), dose: 100.0 mg/kg/injection, schedule: Q07DX005 (ip), vehicle: Klucel (hydroxypropylcellulose) (HPC)”, the survivor count is listed as 2 of 10 on day 30.

Regarding `O=C(O)c1c2c(nc3ccccc13)Cc1ccccc1-2`, the survivor count (T/C endpoint: median tumor weight (est.), dose: 400.0 mg/kg/injection, schedule: Q07DX005 (ip), vehicle: Klucel (hydroxypropylcellulose) (HPC)) is 1 of 10.

With `CN1N=C(N)c2cn(C3OC(COP(=O)(O)O)C(O)C3O)c3ncnc1c23` (stereo not given), the survivor count is 0 of 10 on day 30 (T/C endpoint: median tumor weight (est.), dose: 200.0 mg/kg/injection, schedule: Q07DX005 (ip), vehicle: water) and 0 of 10 on day 30 (T/C endpoint: median tumor weight (est.), dose: 400.0 mg/kg/injection, schedule: Q07DX005 (ip), vehicle: water).

For `O=C1N[C@H]2[C@H](O)[C@H](O)[C@@H](O)[C@H](O)[C@@H]2c2cc3c(c(O)c21)OCO3`, the survivor count reads like this: (T/C endpoint: median tumor weight change, dose: 10.0 mg/kg/injection, schedule: Q01DX005 (ip), vehicle: saline + alcohol) 5 of 10 on day 25; (T/C endpoint: median tumor weight change, dose: 20.0 mg/kg/injection, schedule: Q01DX005 (ip), vehicle: saline + alcohol) 0 of 10 on day 25.

For `COC1OC(CO)C(O)C(NC(=O)N(C)N=O)C1O` (stereo not given), the T/C is 126 % of control (T/C endpoint: median tumor weight change, dose: 125.0 mg/kg/injection, schedule: Q01DX001 (ip), vehicle: saline, evaluated on day 27); 80 % of control (T/C endpoint: median tumor weight change, dose: 250.0 mg/kg/injection, schedule: Q01DX001 (ip), vehicle: saline, evaluated on day 25); 111 % of control [9 of 10 alive on day 27] (T/C endpoint: median tumor weight change, dose: 250.0 mg/kg/injection, schedule: Q01DX001 (ip), vehicle: saline, evaluated on day 27); 74 % of control (T/C endpoint: median tumor weight change, dose: 250.0 mg/kg/injection, schedule: Q01DX001 (ip), vehicle: saline, evaluated on day 28); 97 % of control (T/C endpoint: median tumor weight change, dose: 250.0 mg/kg/injection, schedule: Q01DX001 (ip), vehicle: saline, evaluated on day 41); 71 % of control (T/C endpoint: median tumor weight change, dose: 500.0 mg/kg/injection, schedule: Q01DX001 (ip), vehicle: saline, evaluated on day 25). Also, the T/C (T/C endpoint: median tumor weight change, dose: 500.0 mg/kg/injection, schedule: Q01DX001 (ip), vehicle: saline, evaluated on day 27) was 78 % of control; the T/C (T/C endpoint: median tumor weight change, dose: 500.0 mg/kg/injection, schedule: Q01DX001 (ip), vehicle: saline, evaluated on day 28) is 32 % of control; the T/C (T/C endpoint: median tumor weight change, dose: 500.0 mg/kg/injection, schedule: Q01DX001 (ip), vehicle: saline, evaluated on day 41) is 138 % of control; the T/C (T/C endpoint: median tumor weight change, dose: 1000.0 mg/kg/injection, schedule: Q01DX001 (ip), vehicle: saline, evaluated on day 25) was 32 % of control; the T/C (T/C endpoint: median tumor weight change, dose: 1000.0 mg/kg/injection, schedule: Q01DX001 (ip), vehicle: saline, evaluated on day 27) was 6 % of control [8 of 10 alive on day 27]; the T/C (T/C endpoint: median tumor weight change, dose: 1000.0 mg/kg/injection, schedule: Q01DX001 (ip), vehicle: saline, evaluated on day 28) was 43 % of control [8 of 10 alive on day 28]. The T/C (T/C endpoint: median tumor weight change, dose: 1000.0 mg/kg/injection, schedule: Q01DX001 (ip), vehicle: saline, evaluated on day 41) was 105 % of control. In addition, under “T/C endpoint: median tumor weight change, dose: 2000.0 mg/kg/injection, schedule: Q01DX001 (ip), vehicle: saline”, the survivor count is listed as 0 of 10 on day 27, 0 of 10 on day 28, 1 of 10 on day 25, 1 of 10 on day 41.

For `CS(=O)(=O)CS(=O)(=O)OCCCl`, the survivor count (T/C endpoint: median tumor weight change, dose: 500.0 mg/kg/injection, schedule: Q01DX001 (ip), vehicle: suspension in saline) was 3 of 10 on day 31; the survivor count (T/C endpoint: median tumor weight change, dose: 1000.0 mg/kg/injection, schedule: Q01DX001 (ip), vehicle: suspension in saline) is given as 0 of 10 on day 31; the survivor count (T/C endpoint: median tumor weight change, dose: 2000.0 mg/kg/injection, schedule: Q01DX001 (ip), vehicle: suspension in saline) was 0 of 10 on day 31.

Take `CCC1OCC(C(Cl)CCl)O1` (stereo not given): the T/C is, setting by setting: (T/C endpoint: median tumor weight (est.), dose: 12.5 mg/kg/injection, schedule: Q07DX005 (ip), vehicle: Klucel (hydroxypropylcellulose) (HPC), evaluated on day 30) 131 % of control; (T/C endpoint: median tumor weight (est.), dose: 200.0 mg/kg/injection, schedule: Q07DX005 (ip), vehicle: Klucel (hydroxypropylcellulose) (HPC), evaluated on day 30) 134 % of control [9 of 10 alive].
